{"source": "PubChem BioAssay AID1259405 (NCATS, 2018)", "purpose": "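Mouse-designed siRNAs used to find CHO productivity engineering targets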 (primary screen)", "cell system": "Chinese hamster CHO-K1 ovary cells with stable secreted eGFP expression", "knock-down reagent": "single siRNA against mouse genes, 0.8 pmol siRNA per well (2 µl of 400 nM stock)", "timing": "3 days", "read-out": "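Per-well intracellular GFP measured by laser scanning cytometry, plus viability from ATP luminescence, each relative to plate median of non-targeting control wells, in %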", "direction": "GFP, % of control: higher = more GFP per well, higher productivity; viability (ATP), % of control: higher = more viable cells (more ATP)", "active means": "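Called active when intracellular GFP, relative to negative control, is at or above 120%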", "note": "Shown is a random part of about 50,000 reagents. About 4,000 of all reagents (8%) were called active. 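Mouse siRNA library applied to hamster cells; one well for each siRNA.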 A number with no mark means an inactive call. The numbers tell different reagents against one gene apart. Reagent sequences are not shown."}
{"Target gene":"Myl12b (myosin, light chain 12B, regulatory)","siRNA no.":1,"GFP, % of control":74.6,"viability (ATP), % of control":76}
{"Target gene":"Myl12b (myosin, light chain 12B, regulatory)","siRNA no.":2,"GFP, % of control":88,"viability (ATP), % of control":66.5}
{"Target gene":"Map3k2 (mitogen-activated protein kinase kinase kinase 2)","siRNA no.":1,"GFP, % of control":96.6,"viability (ATP), % of control":93.9}
{"Target gene":"Gnmt (glycine N-methyltransferase)","siRNA no.":1,"GFP, % of control":105,"viability (ATP), % of control":86.5}
{"Target gene":"Gnmt (glycine N-methyltransferase)","siRNA no.":2,"GFP, % of control":"123 (active)","viability (ATP), % of control":87.4}
{"Target gene":"Ddc (dopa decarboxylase)","siRNA no.":1,"GFP, % of control":90.6,"viability (ATP), % of control":133}
{"Target gene":"Ddc (dopa decarboxylase)","siRNA no.":2,"GFP, % of control":74.6,"viability (ATP), % of control":78.3}
{"Target gene":"Ddc (dopa decarboxylase)","siRNA no.":3,"GFP, % of control":"243 (active)","viability (ATP), % of control":79.5}
{"Target gene":"Or8g26 (olfactory receptor family 8 subfamily G member 26)","siRNA no.":1,"GFP, % of control":50.3,"viability (ATP), % of control":32.1}
{"Target gene":"Or8g26 (olfactory receptor family 8 subfamily G member 26)","siRNA no.":2,"GFP, % of control":66.4,"viability (ATP), % of control":83.7}
{"Target gene":"Or8g26 (olfactory receptor family 8 subfamily G member 26)","siRNA no.":3,"GFP, % of control":109,"viability (ATP), % of control":69.8}
{"Target gene":"Nup107 (nucleoporin 107)","siRNA no.":1,"GFP, % of control":83.8,"viability (ATP), % of control":88.7}
{"Target gene":"Nup107 (nucleoporin 107)","siRNA no.":2,"GFP, % of control":62,"viability (ATP), % of control":36.5}
{"Target gene":"Nup107 (nucleoporin 107)","siRNA no.":3,"GFP, % of control":44.6,"viability (ATP), % of control":61.3}
{"Target gene":"Mnat1 (menage a trois 1)","siRNA no.":1,"GFP, % of control":37.8,"viability (ATP), % of control":45.2}
{"Target gene":"Mnat1 (menage a trois 1)","siRNA no.":2,"GFP, % of control":96,"viability (ATP), % of control":81.1}

Part of the list above, reformatted.
| Target gene | siRNA no. | GFP, % of control | viability (ATP), % of control |
| --- | --- | --- | --- |
| Gnmt (glycine N-methyltransferase) | 2 | 123 (active) | 87.4 |
| Ddc (dopa decarboxylase) | 1 | 90.6 | 133 |
